Data taken from PubChem BioAssay AID504467 (National Center for Advancing Translational Sciences (NCATS), 2011).
Among all 330,000 compounds or so, about 7,700 (2.3%) were called active. Inconclusive results, whose numbers are uncertain, are shown with a selection of clear calls. Calls follow the shape of the dose curve; as a rule, active = well fitted inhibition curve with a large enough effect; inconclusive = small, poorly fitted or top-dose-only effect, or effect the other way; inactive = flat fitted curve, though single readings scatter. Potencies beside an inconclusive call are fits to weak or partial responses and may not hold up.

Test: qHTS screen for small molecules that inhibit ELG1-dependent DNA repair in human embryonic kidney (HEK293T) cells expressing luciferase-tagged ELG1; also: nearly all actives have a fitted effect of over 55% in size
Details: HEK293T ELG1-luciferase reporter, luminescence, 16 h, DNA damage induced by 5-fluorouridine; activity change, negative = inhibition: at 46.1 µM (top of the series)
In short: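 In this reporter screen, reduction of luminescence relative to DMSO vehicle indicated activity. Compounds and 5-fluorouridine were added together to 2,000 cells per well, incubated for 16 hr at 37 °C, then developed with ONE-Glo.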
% is scaled to controls: 0 for no effect and ±100 for the full control effect; potency is read from the fitted curve at half-maximal effect.

SMILES	Potency	activity change, negative = inhibition
CC(C)Oc1ccc(CNC(=O)C2CCN(C(=O)N3CCOc4ccccc43)CC2)cc1	inconclusive: 13 µM [inhibitor, partial curve, poor fit]	–
Cc1cc(C)c(S(=O)(=O)Nc2nnc(C3CCCCC3)s2)c(C)c1	–	inactive: 14.7%
Cc1noc(C)c1CSCC(=O)Nc1ccc(S(C)(=O)=O)cc1	–	inactive: -5.57%
C=CCN1C(c2ccccc2)=CS/C1=C(/C#N)c1nnc(N2CCOCC2)n1-c1ccccc1	–	inactive: -7.41%
C/C(=N\Nc1ccccc1[N+](=O)[O-])c1ccc(N2CCOCC2)cc1	inconclusive: 23.1 µM [activator, partial curve]	–
COc1ccccc1/C=C/C(=O)Nc1cccnc1Cl	inconclusive: 2.06 µM [activator, partial curve]	–
Cc1ccccc1Cn1c2ccccc2c2cnn(CC(=O)NCc3ccccn3)c(=O)c21	–	inactive: 4.58%
CS(=O)(=O)c1ccc(C(=O)NCC(c2ccco2)N2CCCCC2)cc1 (configuration not stated)	–	inactive: 16.4%
O=C(NNc1nc2c(F)cccc2s1)c1ccc(F)cc1	–	inactive: -11.6%
CCN1CCN(C(=O)c2cc3nc(-c4ccccc4)cc(C(F)(F)F)n3n2)CC1	–	inactive: 15.8%
COc1ccc(-c2nc(N3CCOCC3)nc3n[nH]c(N)c23)cc1	inconclusive: 6.51 µM [inhibitor, single point]	–
COC(=O)c1cc(NC(=O)c2ccccc2F)cc(C(=O)OC)c1	inconclusive: 20.6 µM [inhibitor, single point]	–
Cc1cc(N2CCN(C3CCCC3)CC2)n2ncc(-c3ccccc3)c2n1	inconclusive: 20.6 µM [activator, partial curve]	–
O=C(NCc1ccc(F)cc1)c1ccc(CS(=O)(=O)Cc2ccc(F)cc2)o1	inconclusive: 20.6 µM [inhibitor, partial curve]	–
CC(=O)Nc1ccc(CN2CCc3c([nH]c4ccccc34)C2C(C)(C)C)cc1 (configuration not stated)	–	inactive: -3.22%
CCN(CC)S(=O)(=O)c1ccc2nc(NC(=O)c3ccco3)sc2c1	inconclusive: 14.6 µM [activator, partial curve]	–
Cc1cc(C)n(-c2ccc(C(=O)NC3=NCCS3)cc2)n1	inconclusive: 10.3 µM [activator, partial curve]	–
Cc1cc(NC(=O)c2noc3c2CCCC3)nn1Cc1ccc(Cl)cc1	–	inactive: -25.2%
Nc1ccc(C(=O)N/N=C\c2ccc(OC(=O)c3ccccc3Cl)cc2)cc1	inconclusive: 23.1 µM [activator, partial curve, poor fit]	–
COc1ccc(C(C)=O)cc1CSc1nnc(-c2ccc(Cl)cc2)n1-c1ccccc1	inconclusive: 29.1 µM [inhibitor, single point]	–
CCN(CC)CCNC(=O)CCc1nnc2ccc(N3CCC(C)CC3)nn12	–	inactive: -3.31%
COc1cccc(-c2c(C(=O)N/N=C/c3ccco3)nnn2-c2nonc2N)c1	–	inactive: 13.8%
CCn1c(=O)cc(SCC(=O)N2CCN(C)CC2)c2ccccc21	inconclusive: 16.4 µM [activator, partial curve]	–
Cc1ccc(NC(=O)CCOc2ccccc2)cc1S(=O)(=O)Nc1ccccc1Cl	inconclusive: 29.1 µM [inhibitor, single point]	–

SMILES	Potency	activity change, negative = inhibition
O=c1cc(O)c2sc(Nc3ccc(Cl)c(F)c3)nc2[nH]1	inconclusive: 5.8 µM [activator, partial curve, poor fit]	–
Cc1ccc(OCc2cc(C(=O)NCC(C)(C)N3CCOCC3)no2)cc1C	inconclusive: 23.1 µM [inhibitor, single point]	–
Cc1csc(/C(=N/OC(=O)c2ccco2)C(N)=O)n1	–	inactive: 26.5%
COc1ccc(/C=N/Nc2nc(N)cc(Cl)n2)cc1OC	–	inactive: 13.9%
CCOc1ccc(CN2CCN(Cc3cc4ccccc4o3)CC2CCO)cc1 (configuration not stated)	inconclusive: 7.3 µM [inhibitor, partial curve, poor fit]	–
COc1cc(OC)cc(-c2nn[nH]n2)c1	–	inactive: -3.3%
COc1ccc(/C=N/NC(=O)c2nc(-c3ccccc3)cc(-c3ccccc3)n2)cc1O	active: 6.51 µM	–
COc1ccc(CCNC(=O)CCCn2c(SCC#N)nc3ccccc3c2=O)cc1OC	inconclusive: 14.6 µM [inhibitor, partial curve]	–
COC(=O)c1cc(Cl)cc2c(CCO)c[nH]c12	inconclusive: 20.6 µM [activator, single point]	–
O=C(COc1ccc(Cl)cc1)Nc1nnc(C2=COCCO2)o1	–	inactive: 9.26%
O=C(/C=C/c1ccc([N+](=O)[O-])cc1)OCC(=O)c1ccc[nH]1	inconclusive: 8.2 µM [activator, partial curve, poor fit]	–
COc1ccc(S(=O)(=O)N2CCN(c3ccc4nnc(-c5ccc(F)cc5)n4n3)CC2)cc1	active: 18.4 µM	–
Cc1ccccc1Cn1cc(NC(=O)c2noc3c2CC(C(C)(C)C)CC3)cn1 (configuration not stated)	inconclusive: 5.17 µM [inhibitor, partial curve, poor fit]	–
CNC(=S)N(Cc1cccs1)Cc1cc2cc(OC)ccc2[nH]c1=O	inconclusive: 2.31 µM [inhibitor, partial curve, poor fit]	–
O=C(O)CSc1nc2ccccc2o1	–	inactive: -0.468%
COc1ccc(CC(=O)Nc2ccc(F)c(Cl)c2)cc1S(=O)(=O)N1CCOCC1	inconclusive: 14.1 µM [inhibitor, single point]	–
CC(C)CNC(=O)C1CCN(c2ccc(S(=O)(=O)N3CCOCC3)cc2Cl)CC1	inconclusive: 13 µM [inhibitor, partial curve]	–
COc1ccc(S(=O)(=O)N(C)C)cc1NCC(=O)Nc1cccc(C#N)c1	–	inactive: -17.4%
Cc1cnc(C(=O)Nc2ccccc2F)cn1	inconclusive: 16.4 µM [activator, partial curve]	–
O=C(c1cccc(Cl)c1)N1CCC2(CC1)NCCc1[nH]cnc12	–	inactive: 8.52%
O=C(c1ccc(-c2ccccc2)cc1)C1CCCN(C(=O)c2ccncc2)C1 (configuration not stated)	–	inactive: 7.01%
Cc1cccc(NC(=O)CSc2nsc(SCC(=O)Nc3cccc(C)c3)c2C#N)c1	active: 8.2 µM	–
CCOC(=O)C1CCN(C(=O)CSc2nnc(-c3ccco3)n2-c2ccccc2)CC1	inconclusive: 35.5 µM [inhibitor, single point]	–
COc1nccc(Nc2ccccc2)c1C#N	–	inactive: -1.99%

SMILES	Potency	activity change, negative = inhibition
CCC(C)(C)n1nnnc1C(c1cccs1)N1CCc2ccccc21 (configuration not stated)	inconclusive: 23.1 µM [inhibitor, single point]	–
CCC(NC(=O)c1cc(COc2c(F)cccc2F)on1)c1ccncc1 (configuration not stated)	inconclusive: 25.9 µM [inhibitor, partial curve]	–
COc1cc(OC)c(C#N)c(S(=O)(=O)Cc2ccccc2)c1	–	inactive: -3.86%
CCC(=O)N(C)/C=C1\Sc2ccccc2C1=O	inconclusive: 12.6 µM [activator, single point]	–
COc1ccc(CCC(=O)Nc2cccc(S(=O)(=O)N3CCCCCC3)c2)cc1OC	inconclusive: 18.3 µM [inhibitor, single point]	–
CC(C)N(Cc1ccccc1)C(=S)NC(=O)C1(C)CC1(Cl)Cl (configuration not stated)	–	inactive: -19.2%
CN(C(=O)c1ccc(NC(=O)Cc2ccc([N+](=O)[O-])cc2)cc1)C1CCCC1	inconclusive: 32.6 µM [inhibitor, single point]	–
CN(Cc1ccccc1)C1CCN(Cc2ccccc2[N+](=O)[O-])CC1	–	inactive: -9.67%
CCOC(=O)c1c(C)[nH]c(C(=O)COC(=O)c2ccccc2NC(=O)c2ccco2)c1C	inconclusive: 2.91 µM [inhibitor, full curve]	–
Cc1ccc(C2C(C(=O)c3ccco3)=C(O)C(=O)N2c2nnc(C)s2)cc1 (configuration not stated)	–	inactive: 14.5%
Cn1c(C(=O)NCCc2c[nH]c3ccccc23)cc2sccc21	inconclusive: 7.31 µM [activator, partial curve]	–
O=C(Nc1ccc(S(=O)(=O)N2CCOCC2)cc1)c1cc([N+](=O)[O-])ccc1Cl	inconclusive: 3.66 µM [activator, partial curve, poor fit]	–
Cc1cccc(OCc2nnc(SCC(=O)N3c4ccccc4CCc4ccccc43)o2)c1	inconclusive: 18.3 µM [inhibitor, single point]	–
COc1cc(C(=S)N2CCCC2)ccc1OCc1ccccc1	inconclusive: 9.2 µM [activator, partial curve]	–
CCN1C(=O)[C@H]2[C@@H](c3ccc(-c4ccc5c(c4)OCO5)cc3)N3CCC[C@@]3(C(=O)OC)[C@H]2C1=O	inconclusive: 28.2 µM [inhibitor, single point]	–
CC1=C(C(=O)OCc2ccccc2)C(c2ccsc2)C(C#N)=C(N)O1 (configuration not stated)	inconclusive: 23.1 µM [activator, single point]	–
CCOc1ccccc1C(=O)OCC(=O)Nc1cc(S(=O)(=O)N2CCOCC2)ccc1C	inconclusive: 18.3 µM [inhibitor, single point]	–
CCOC(=O)c1cnc2c(-c3ccccc3)c(C)nn2c1N	inconclusive: 9.2 µM [activator, partial curve]	–
COc1ccc(-c2coc3cc4oc(=O)cc(C)c4cc23)cc1F	–	inactive: 14.2%
COc1ccc(C(=O)c2oc3ccccc3c2N)cc1	inconclusive: 10 µM [activator, partial curve]	–
C/C(=N\NC(=O)c1cccs1)c1ccncc1	inconclusive: 18.3 µM [activator, partial curve]	–
COc1cccc(NC(=O)NCc2cccn2C)c1	inconclusive: 16.4 µM [activator, single point]	–
Cn1c(=NC(=O)C(C)(C)C)sc2cccc(F)c21	inconclusive: 23.1 µM [activator, partial curve, poor fit]	–
O=C(Nc1cccc(C(=O)N2CCOCC2)c1)NC1CCCCC1	–	inactive: -1.13%

Shown as labelled records: part of the list above.
COc1cc(OC)c(C#N)c(S(=O)(=O)Cc2ccccc2)c1
  activity change, negative = inhibition: inactive: -3.86%
CN(C(=O)c1ccc(NC(=O)Cc2ccc([N+](=O)[O-])cc2)cc1)C1CCCC1
  Potency: inconclusive: 32.6 µM [inhibitor, single point]
CN(Cc1ccccc1)C1CCN(Cc2ccccc2[N+](=O)[O-])CC1
  activity change, negative = inhibition: inactive: -9.67%
O=C(Nc1ccc(S(=O)(=O)N2CCOCC2)cc1)c1cc([N+](=O)[O-])ccc1Cl
  Potency: inconclusive: 3.66 µM [activator, partial curve, poor fit]
